The record followed here is PubChem BioAssay AID248 (DTP/NCI, 2004).

Structures are written as SMILES. The list shows only some results of the screen, not a fair sample: it is rich in T/C values a quarter to a half above the control, in often repeated tests (any T/C) and in doses without a T/C. Other doses and runs of a compound stand elsewhere. T/C gives the treated animals as a percentage of the vehicle group. Some doses have a count of surviving animals in place of a T/C: the source holds a T/C of zero for them, seemingly a mark for toxic or unscored doses. Some doses without a T/C left all or most animals alive at the check, yet need not have been tolerated: survival well below the control is almost never listed, so the zero probably covers shortened survival too. Counts of survivors are from the toxicity check (mostly the fifth day) where no day follows; animals may have died later. Schedules are NCI's codes, taken here to give the interval after Q, in days (D) or hours (H), and the number of doses after X. Some doses were run more than once; the results are listed from low to high. Some schedule codes hold Z or #, which are not explained here. Where survival is the endpoint, the PubChem record calls one and a half times the control and up active, and a quarter to a half above the control has no call in these data; cut-offs in other NCI protocols can differ.

The test system of this test is L1210 leukemia ip in BDF1 mice, survival T/C. The test can be described thus: NCI In Vivo Anticancer Drug Screen. Data for tumor model L1210 Leukemia (intraperitoneal) in B6D2F1 (BDF1) mice. As to conditions: T/C endpoint: mean survival time, higher T/C = longer survival.
Where [1] appears, read: dose: 12.5 mg/kg/injection, schedule: Q01DX009 (ip), vehicle: saline with Tween-80.
Where [2] appears, read: dose: 200.0 mg/kg/injection, schedule: Q01DX009 (ip), vehicle: Klucel (hydroxypropylcellulose) (HPC).
Where [3] appears, read: dose: 400.0 mg/kg/injection, schedule: Q01DX009 (ip), vehicle: Klucel (hydroxypropylcellulose) (HPC).
[4] abbreviates: dose: 200.0 mg/kg/injection, schedule: Q01DX009 (ip), vehicle: saline with Tween-80.
The mark [5] stands for this setting: dose: 200.0 mg/kg/injection, schedule: Q01DX001 (ip), vehicle: carboxymethylcellulose (CMC).
The mark [6] stands for this setting: dose: 400.0 mg/kg/injection, schedule: Q04DX003 (ip), vehicle: saline.
Where [7] appears, read: dose: 400.0 mg/kg/injection, schedule: Q04DX003 (ip), vehicle: saline with Tween-80.
[8] abbreviates: dose: 400.0 mg/kg/injection, schedule: Q01DX001 (ip), vehicle: saline with Tween-80.
[9] abbreviates: dose: 400.0 mg/kg/injection, schedule: Q04DX003 (ip), vehicle: Klucel (hydroxypropylcellulose) (HPC).

For `C[N+](C)(C)C1(Cc2ccc(F)cc2)c2ccccc2-c2ccccc21`, the survivor count under setting [1] is 5 of 6.
In the case of `COC(=O)/C(=C1\C=C(c2ccccc2)C(=O)O1)c1ccccc1`, the survivor count (dose: 100.0 mg/kg/injection, schedule: Q01DX009 (ip), vehicle: Klucel (hydroxypropylcellulose) (HPC)) was 0 of 3 and 2 of 6; the survivor count under setting [2] is reported as 0 of 6; the survivor count under setting [3] is given as 0 of 6.
For the molecule `Cc1ccc(C2=NN(c3ccccc3)C(c3ccccc3)C2NC2CCCCC2)cc1` (stereo not drawn), where the note is “dose: 200.0 mg/kg/injection, schedule: Q01DX009 (ip), vehicle: acetone”, the survivor count is reported as 6 of 6.
Take `O=[N+]([O-])/C=C/c1ccccc1Cl`: the survivor count reads like this: (dose: 40.0 mg/kg/injection, schedule: Q01DX009 (ip), vehicle: other) 0 of 6; (dose: 100.0 mg/kg/injection, schedule: Q01DX009 (ip), vehicle: saline with Tween-80) 2 of 6; (dose: 120.0 mg/kg/injection, schedule: Q04DX003 (ip), vehicle: other) 4 of 6; (dose: 150.0 mg/kg/injection, schedule: Q01DX001 (ip), vehicle: saline) 3 of 6; (dose: 150.0 mg/kg/injection, schedule: Q01DX009 (sc), vehicle: olive oil, sesame oil, peanut oil) 1 of 6; under setting [4], 0 of 6. Also, the survivor count (dose: 300.0 mg/kg/injection, schedule: Q01DX001 (ip), vehicle: saline) was 0 of 6.
As to `COc1ccccc1CCN`, the survivor count is, setting by setting: (dose: 100.0 mg/kg/injection, schedule: Q04DX002 (ip), vehicle: saline) 3 of 3; (dose: 400.0 mg/kg/injection, schedule: Q04DX002 (ip), vehicle: saline) 1 of 3.
As to `O=S(=O)(Nc1ccccc1)c1ccc(C2CC3(Cl)C(Cl)=C(Cl)C2(Cl)C3(Cl)Cl)cc1` (stereo not drawn), the T/C by setting is: (dose: 133.0 mg/kg/injection, schedule: Q01DX001 (ip), vehicle: carboxymethylcellulose (CMC)) 127 % of control; under setting [5], 129 % of control. For the same molecule, the survivor count (dose: 200.0 mg/kg/injection, schedule: Q01DX009 (ip), vehicle: saline sonified) was 6 of 6.
`NC(=O)NN=C1COC(c2ccccc2)OC1` (stereo not drawn): the survivor count is recorded as 4 of 6 (dose: 200.0 mg/kg/injection, schedule: Q01DX009 (ip), vehicle: saline) and 0 of 6 under setting [6].
Regarding `N#CCC(=O)[O][Sn]([c]1ccccc1)([c]1ccccc1)[c]1ccccc1`, the survivor count (dose: 6.25 mg/kg/injection, schedule: Q01DX009 (ip), vehicle: saline with Tween-80) is listed as 6 of 6; the survivor count under setting [1] is recorded as 0 of 6; the survivor count (dose: 25.0 mg/kg/injection, schedule: Q01DX009 (ip), vehicle: saline with Tween-80) is 0 of 6; the survivor count (dose: 25.0 mg/kg/injection, schedule: Q04DX002 (ip), vehicle: saline with Tween-80) is 1 of 3; the survivor count (dose: 50.0 mg/kg/injection, schedule: Q04DX002 (ip), vehicle: saline with Tween-80) is on record as 0 of 3; the survivor count (dose: 100.0 mg/kg/injection, schedule: Q04DX002 (ip), vehicle: saline with Tween-80) is listed as 0 of 3. Also, the survivor count by setting is: (dose: 200.0 mg/kg/injection, schedule: Q04DX002 (ip), vehicle: saline with Tween-80) 0 of 3; (dose: 400.0 mg/kg/injection, schedule: Q04DX002 (ip), vehicle: saline with Tween-80) 0 of 3.
In the case of `CN(N=O)C(=O)NCc1c[nH]c(=O)[nH]c1=O`, for the setting “dose: 75.0 mg/kg/injection, schedule: Q01DX Z (ip), vehicle: carboxymethylcellulose (CMC)”, the T/C is 133 % of control. For the same molecule, the survivor count runs as follows: (dose: 100.0 mg/kg/injection, schedule: Q01DX Z (ip), vehicle: carboxymethylcellulose (CMC)) 2 of 6; (dose: 150.0 mg/kg/injection, schedule: Q01DX Z (ip), vehicle: carboxymethylcellulose (CMC)) 1 of 6.
As for `CCOC1(C(=O)O)CC(c2ccc(Cl)cc2)Nc2c(OC)ccc(OC)c21` (stereo not drawn), the survivor count under setting [7] is 6 of 6.
Regarding `CC(C)(CO)CN1CCCCC1`, under setting [4], the survivor count is 3 of 6.
`CCOC(=O)Nc1cc(NCCCCc2ccccc2)c(N)c(N)n1`: under setting [8], the survivor count was 0 of 6.
As for `CC(C)CCC(CCC(C)C)NCC(C)OC(=O)c1ccc(N)cc1` (stereo not drawn), for the setting “dose: 300.0 mg/kg/injection, schedule: Q01DX001 (ip), vehicle: carboxymethylcellulose (CMC)”, the survivor count is 0 of 6.
For `O=[N+]([O-])c1ccc(N/N=C(\Oc2ccccc2)c2ccc([N+](=O)[O-])cc2)cc1`, under setting [7], the survivor count is recorded as 4 of 4.
As for `OC1CCC(CC2CCCCC2)CC1` (stereo not drawn), the survivor count (dose: 100.0 mg/kg/injection, schedule: Q04DX003 (ip), vehicle: saline with Tween-80) is recorded as 6 of 6.
Consider `O=C(O)c1ccc(N=NNc2ccccc2)cc1`, for which the survivor count is on record as 1 of 3 (dose: 100.0 mg/kg/injection, schedule: Q01DX001 (ip), vehicle: saline with Tween-80); 1 of 3 (dose: 200.0 mg/kg/injection, schedule: Q01DX001 (ip), vehicle: saline with Tween-80); 0 of 3 under setting [8].
For `CC(=O)[O][Hg][c]1cc2c(cc1O)Cc1cc([N+](=O)[O-])ccc1-2`, the survivor count is, setting by setting: (dose: 100.0 mg/kg/injection, schedule: Q01DX001 (ip), vehicle: carboxymethylcellulose (CMC)) 0 of 4; under setting [5], 0 of 4; (dose: 400.0 mg/kg/injection, schedule: Q01DX001 (ip), vehicle: carboxymethylcellulose (CMC)) 0 of 4.
With `COc1ccc(OC)c(NC(=O)N(CCC#N)C2CCCCC2)c1`, the survivor count under setting [9] was 6 of 6.
For the molecule `Cn1ccc(=O)c2cc([N+](=O)[O-])ccc21`, the survivor count was 2 of 6 (dose: 400.0 mg/kg/injection, schedule: Q01DX009 (ip), vehicle: water) and 1 of 3 under setting [7].
Take `CCOC(=O)N1CCN(CCO)CC1`: the survivor count under setting [6] is reported as 2 of 3.
For the molecule `O=[N+]([O-])c1ccc(N=C=S)cc1`, the survivor count reads like this: (dose: 100.0 mg/kg/injection, schedule: Q04DX003 (ip), vehicle: Klucel (hydroxypropylcellulose) (HPC)) 1 of 3; (dose: 200.0 mg/kg/injection, schedule: Q04DX003 (ip), vehicle: Klucel (hydroxypropylcellulose) (HPC)) 0 of 3; under setting [9], 0 of 3.
With `Cc1ccc[n+](CC(=O)c2ccccc2)c1`, the survivor count reads like this: (dose: 1.56 mg/kg/injection, schedule: Q01DX009 (ip), vehicle: saline) 2 of 6; (dose: 2.3 mg/kg/injection, schedule: Q01DX009 (ip), vehicle: saline) 4 of 6; (dose: 3.12 mg/kg/injection, schedule: Q04DX003 (ip), vehicle: saline) 5 of 6; (dose: 3.5 mg/kg/injection, schedule: Q01DX009 (ip), vehicle: saline) 0 of 6; (dose: 5.2 mg/kg/injection, schedule: Q01DX009 (ip), vehicle: saline) 0 of 6; (dose: 6.25 mg/kg/injection, schedule: Q04DX003 (ip), vehicle: saline) 0 of 6. Also, the survivor count runs as follows: (dose: 12.5 mg/kg/injection, schedule: Q04DX003 (ip), vehicle: saline) 0 of 6; (dose: 25.0 mg/kg/injection, schedule: Q04DX003 (ip), vehicle: saline) 1 of 6; (dose: 50.0 mg/kg/injection, schedule: Q04DX003 (ip), vehicle: saline) 0 of 6; (dose: 100.0 mg/kg/injection, schedule: Q04DX003 (ip), vehicle: saline) 0 of 6; (dose: 200.0 mg/kg/injection, schedule: Q04DX003 (ip), vehicle: saline) 0 of 6; under setting [6], 1 of 6.
Turning to `CCC(C)C(C#N)(CCN(C)C)Cc1cccc2ccccc12` (stereo not drawn), the survivor count reads like this: under setting [2], 5 of 6; under setting [3], 0 of 6.
